# The list shows a part of the results.
# Protein sequences, listed by entry. Tags and fused reporters are not part of them.
# UniProt Q0JBA9, entry or part of it: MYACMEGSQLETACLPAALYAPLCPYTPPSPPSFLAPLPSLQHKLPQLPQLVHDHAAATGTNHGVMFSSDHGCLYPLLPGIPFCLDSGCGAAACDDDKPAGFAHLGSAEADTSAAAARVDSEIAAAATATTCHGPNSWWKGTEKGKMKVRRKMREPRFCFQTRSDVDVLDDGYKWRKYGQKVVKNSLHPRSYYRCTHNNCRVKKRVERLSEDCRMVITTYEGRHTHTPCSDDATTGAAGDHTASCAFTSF
# Molecular target: OsWRKY34 (Oryza sativa, UniProt Q0JBA9 1-250)
# Assay: protein-binding microarray (RPBM); PBS, 2% BSA, 51.3 ng/ul salmon testes DNA, 50 uM zinc acetate, 200 nM TF, 25 C, 1 h; high values mean tight binding
# Conditions: protein: recombinant; tags: N-terminal polyhistidine and DsRed monomer fusion (pET32a); label: CyDye5-dUTP incorporated in the synthesized complementary strand; 3' TTTTT single-stranded linker to array surface; dsDNA, one strand shown
# Outline: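 The binding signal for each feature is its fluorescence intensity in arbitrary units. An Axon 4000B scanner was used to read a custom Agilent array that had been made double-stranded with Cy5-dUTP primer extension, blocked with 2% BSA, incubated at 25 °C for 1 h with 200 nM protein in PBS, 2% BSA, salmon testes DNA and 50 µM zinc acetate, and washed. The protein was an N-terminal polyhistidine–DsRed transcription factor fusion from E. coli BL21-CodonPlus, purified on Ni–NTA.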
row,Sequence,binding signal
1,CTTTGTGCTCTCTTGGTCTCTCTCTTCTACTTGCTCTCCACGGAGTCACCTAGTGCAG,12200 fluorescence intensity (a.u.)
2,AAATGACCGAGCTACACTCTCTTCTTGCCAAGGCTATCATCGGAGTCACCTAGTGCAG,8770 fluorescence intensity (a.u.)
3,GCAACACGGTAATTAAATTTACTCTCGATGGGCGCACGTTCGGAGTCACCTAGTGCAG,8110 fluorescence intensity (a.u.)
4,TCGTCTACATCTTCATTCTGTTTAGATTCTTCTTGAACTGCGGAGTCACCTAGTGCAG,8410 fluorescence intensity (a.u.)
5,AAGCAACCCCACTTACACCGTGTTAAGATCCTAAATTTTTCGGAGTCACCTAGTGCAG,10100 fluorescence intensity (a.u.)
6,ATTTTTCCATCACATGAAAATTTTCCTACACATAAACTTTCGGAGTCACCTAGTGCAG,9380 fluorescence intensity (a.u.)
7,AACATCTAAGCACTCATATGATAACCCATTTACTGACTTACGGAGTCACCTAGTGCAG,8930 fluorescence intensity (a.u.)
8,ATCCTCTCTCATCATTTTTTCCCTTTTTCTCCTTCAACCACGGAGTCACCTAGTGCAG,10500 fluorescence intensity (a.u.)
9,CTTCACGCGACGTGCTGCTCCGCTCCGCTCCGTCGTCAAGCGGAGTCACCTAGTGCAG,8230 fluorescence intensity (a.u.)
10,CTTGCCCGCCGCCATCGCCATGCCACTGGGCGTACCTGCCCGGAGTCACCTAGTGCAG,10400 fluorescence intensity (a.u.)
11,TTGTCGCTCCTCATCCCCGTCACCGAACTGTTGCCGCAACCGGAGTCACCTAGTGCAG,9150 fluorescence intensity (a.u.)
12,GCAGTTGTGCCCTTAAATACCCACACGCCTCTCTTTCTTCCGGAGTCACCTAGTGCAG,10400 fluorescence intensity (a.u.)
13,CTCCTCGTCTTCTTCTTCCACCTCGCAAATCCGATCAACACGGAGTCACCTAGTGCAG,9850 fluorescence intensity (a.u.)
14,TGCCAGTTAACCTTATACTATATGCAATCGGGGAATGATGCGGAGTCACCTAGTGCAG,8500 fluorescence intensity (a.u.)
15,TTAGGTGTTTTGTAGTAGTGTAATGGGGCATATTCGTGGGCGGAGTCACCTAGTGCAG,8270 fluorescence intensity (a.u.)
16,TTCTTTTTTTCTTTTTGTGTGTGTCTATTGCCGTCCTTGACGGAGTCACCTAGTGCAG,10700 fluorescence intensity (a.u.)
17,GAGTTTATTGGGATAGGATACGTCTATGTGCATTTGCATACGGAGTCACCTAGTGCAG,8060 fluorescence intensity (a.u.)
18,ACCACTCATCAGCTCGCTCTCGCCTATCTTCTCCTATAATCGGAGTCACCTAGTGCAG,8250 fluorescence intensity (a.u.)
19,CACTCCTGCTCGACTCCTTGGTGACGTTTCTGTTTCTGTTCGGAGTCACCTAGTGCAG,12200 fluorescence intensity (a.u.)
20,GGGGCCCACCCAGCAGCCACTCATTTATTTTCCAGTTCCGCGGAGTCACCTAGTGCAG,8090 fluorescence intensity (a.u.)
21,TTCCTGCAGCCGGACACTCGTTGCGCGAATCTTGACTGCTCGGAGTCACCTAGTGCAG,8120 fluorescence intensity (a.u.)

row,Sequence,binding signal
1,CCCCGATCCCCACCTCGTCTCCACCGCACGAGCAGCAGCACGGAGTCACCTAGTGCAG,9270 fluorescence intensity (a.u.)
2,GCTTATACCTATATACACATTACATTTTGATGGCTTATCTCGGAGTCACCTAGTGCAG,10700 fluorescence intensity (a.u.)
3,CGCCGCCGCCTCGGTCCTCCCAATGCCGCCCACCGAGTCGCGGAGTCACCTAGTGCAG,8360 fluorescence intensity (a.u.)
4,TCATGTAACTTTTCACCTTTTCAGGACCTTTTTTTTTCCACGGAGTCACCTAGTGCAG,8120 fluorescence intensity (a.u.)
5,AATCGACCAGACCAAACCAAACCCAAACCAAACCCAACCCCGGAGTCACCTAGTGCAG,8900 fluorescence intensity (a.u.)
6,CCTATCTCTCTCTTTCTCACTTTTCTCCTTGTTTTCAAAACGGAGTCACCTAGTGCAG,8980 fluorescence intensity (a.u.)
7,CGAACGAACGACGCCACCGCCCACCACCTCCACCACCAACCGGAGTCACCTAGTGCAG,8500 fluorescence intensity (a.u.)
8,GAGTCACTGTCTCCTCCTCGCCGTCCCTAGTCAACGTCTTCGGAGTCACCTAGTGCAG,9770 fluorescence intensity (a.u.)
9,CAGACCAGCCCACAACTCGCAATCCATCTTGGGCCTATTTCGGAGTCACCTAGTGCAG,8590 fluorescence intensity (a.u.)
10,CCCTCTCTGTTGTTTGCTCATCGATCATTGAGGGCGAGGTCGGAGTCACCTAGTGCAG,8140 fluorescence intensity (a.u.)
11,ATTTTCAGTCTTTCATTTTTACAGATACTCATTGCATTAACGGAGTCACCTAGTGCAG,8230 fluorescence intensity (a.u.)
12,GGCGACAAGGTAGGGTTAGGGTTTCGATCTTTTGATCCGTCGGAGTCACCTAGTGCAG,10000 fluorescence intensity (a.u.)
13,CTAATTGCAGAGGGTGTGGATGCTACTGTATTCGGGCGCCCGGAGTCACCTAGTGCAG,9280 fluorescence intensity (a.u.)
14,ATTATCATCTTCTTTTTTTTTCCACCTTTTTACATACTTACGGAGTCACCTAGTGCAG,9290 fluorescence intensity (a.u.)
15,ATGTTCGGGCTTGCTTTGGTTTCTATCCTGAGTTGGACGTCGGAGTCACCTAGTGCAG,9380 fluorescence intensity (a.u.)
16,AGCTAGTCTTCTAGTCCTTTTTCTTTTCGGTTGATTGTTTCGGAGTCACCTAGTGCAG,9430 fluorescence intensity (a.u.)
17,AGATAATATTTCATCTCTATCATTATGCATTTATTTACACCGGAGTCACCTAGTGCAG,9200 fluorescence intensity (a.u.)
18,TCCGCCGTCGCCGCTCCGTCCATCGCCCGCCGTCACCGCCCGGAGTCACCTAGTGCAG,9200 fluorescence intensity (a.u.)
19,CAATCCGCCTCGCTCTCGCCGCCCGCACCCACGCTCACGCCGGAGTCACCTAGTGCAG,10300 fluorescence intensity (a.u.)
20,CCCAGGCAGCTCTCTATATATATATCACTATATCAGAATCCGGAGTCACCTAGTGCAG,8780 fluorescence intensity (a.u.)
21,CTGTTGCGGCTTGTTTGTTAACTCGAGGGAAGGGGATTGGCGGAGTCACCTAGTGCAG,8070 fluorescence intensity (a.u.)

row,Sequence,binding signal
1,CACTTTCCTACACACGTAAACTTCCAACTTTTCCATCACACGGAGTCACCTAGTGCAG,10100 fluorescence intensity (a.u.)
2,ATGGTTCACCAGACTTCGGATTTAGCCTTTTATCTTTTTTCGGAGTCACCTAGTGCAG,8690 fluorescence intensity (a.u.)
3,TGGGGAGGAGGAGCATAATGCAGGTGCTGGCCAGATTTTTCGGAGTCACCTAGTGCAG,8430 fluorescence intensity (a.u.)
4,ACTGTCTAGCTTTACTAGTACTACTATTGATCGAGTCAATCGGAGTCACCTAGTGCAG,9730 fluorescence intensity (a.u.)
5,TTTTTCTGTTTTCTGTTTGCAAGGTCCTGACCTTTTTCAACGGAGTCACCTAGTGCAG,12500 fluorescence intensity (a.u.)
6,GGTTTGAATGGTTGCATGGATTTTTCACGTAAAATATTAACGGAGTCACCTAGTGCAG,9500 fluorescence intensity (a.u.)
7,TGCCACCCGATCTCCTTCCAGTGTTATTCAACACCCGTCCCGGAGTCACCTAGTGCAG,8610 fluorescence intensity (a.u.)
8,ATATGTCAGTTGCACATTTTCTTTCTTTTCCTTTCCTTCTCGGAGTCACCTAGTGCAG,8340 fluorescence intensity (a.u.)
9,TGTCCCTGTCTATTTTACCTCTATATCGCACGTACTCCGGCGGAGTCACCTAGTGCAG,8700 fluorescence intensity (a.u.)
10,GTTGTTCCGATTCTCAAGCTACACACGACACCCACGTCCGCGGAGTCACCTAGTGCAG,9050 fluorescence intensity (a.u.)
11,CAATATGCCATTGTGGAGATGTTTTCTTTCTTTTTTTTTTCGGAGTCACCTAGTGCAG,8540 fluorescence intensity (a.u.)
12,AACTGAATTGTTGGTTTTTTCGGTTTTCGGTTGTCAGTTCCGGAGTCACCTAGTGCAG,11900 fluorescence intensity (a.u.)
13,TATCAGGAGATCGGTCCCTTGTGCATCTTCCCCGTCTTGACGGAGTCACCTAGTGCAG,8840 fluorescence intensity (a.u.)
14,CCTGACCATCCGTTTCGTCCTCCTTTCCTGTGCTTTTTCCCGGAGTCACCTAGTGCAG,9870 fluorescence intensity (a.u.)
15,CCCCGCGAAAGCCTCCGCCACCCGTTACCGGCCGCAACCCCGGAGTCACCTAGTGCAG,9470 fluorescence intensity (a.u.)
16,CCTTTCAAACAACACTTTCGTTTTTCAATTATCTATTTTACGGAGTCACCTAGTGCAG,8360 fluorescence intensity (a.u.)
17,TTGAATTGAATTATTATGCTCATCGCTTTCGCATAACCTCCGGAGTCACCTAGTGCAG,8320 fluorescence intensity (a.u.)
18,TCTCTCTCTCTCTCTCTCTCTCTCTCTCTCTCTCTTGCAACGGAGTCACCTAGTGCAG,9780 fluorescence intensity (a.u.)
19,ACTATATTCTGTTTTGTTCTGTTAATTTACTATTCTGTTTCGGAGTCACCTAGTGCAG,10500 fluorescence intensity (a.u.)
20,GGTGGCATCAAGTATCCAACATTCTAACCTCGTTGCATCCCGGAGTCACCTAGTGCAG,9660 fluorescence intensity (a.u.)
21,CCCCAACCGCTTCTTTCGCACTCGCCGTTTTGGTTTTCGTCGGAGTCACCTAGTGCAG,9000 fluorescence intensity (a.u.)

row,Sequence,binding signal
1,TTTCATGCAGTGCGAGCAACCCACCATTTCCATCTAAATTCGGAGTCACCTAGTGCAG,8140 fluorescence intensity (a.u.)
2,TTTGACGCTGTTGACTTTTTTTAACATGTTTGACTGTTCGCGGAGTCACCTAGTGCAG,32700 fluorescence intensity (a.u.)
3,TCATCACTCATCACTCGTTCTTTCGTTACTCATGGAACGGCGGAGTCACCTAGTGCAG,8380 fluorescence intensity (a.u.)
4,GAACCCATGACCTGACTGACCTTCACACGCACGTGCCACACGGAGTCACCTAGTGCAG,8600 fluorescence intensity (a.u.)
5,CAGGAACTCATTTGGCCTCTCATTCTTCTCCAACCTTTCTCGGAGTCACCTAGTGCAG,8450 fluorescence intensity (a.u.)
6,TCTGCTGCCGAAATTCGGCGCGGCCGCCGCAGCATACACACGGAGTCACCTAGTGCAG,9420 fluorescence intensity (a.u.)
7,GAGGTAGCGGTGGCGGTGAGGGCGGGGAGAGGAAGGCAGCCGGAGTCACCTAGTGCAG,8040 fluorescence intensity (a.u.)
8,TTTTGCAGAACACATCGCCCTTCTCTTTTTCCTTTTCTCCCGGAGTCACCTAGTGCAG,8290 fluorescence intensity (a.u.)
9,TAAACTTAGTCAAACTTGAAATAATTTAATTTTGACCAAACGGAGTCACCTAGTGCAG,9280 fluorescence intensity (a.u.)
10,ATCTTACAAAAACTTCCATGACTTTTTTTGCTGTGTGTGTCGGAGTCACCTAGTGCAG,9440 fluorescence intensity (a.u.)
11,CAGATGGTCTGGTGGTCGGCGGAGGTCCCGGCGCGCGCGTCGGAGTCACCTAGTGCAG,8360 fluorescence intensity (a.u.)
12,CCCAATCAACTTCTTTTCCTTCGCCCAAGCAAGTACCTCTCGGAGTCACCTAGTGCAG,8830 fluorescence intensity (a.u.)
13,ACGGTGTAAAAATTAGCAACCTTCATTACCTTGCTTTTGTCGGAGTCACCTAGTGCAG,10600 fluorescence intensity (a.u.)
14,AAACACATCACGTTGCTGCCCATACACAACACGTGCAAGACGGAGTCACCTAGTGCAG,8350 fluorescence intensity (a.u.)
15,TCTTTCTCTTTCCTCATTTATTCACTTGCCACATCATTTTCGGAGTCACCTAGTGCAG,8160 fluorescence intensity (a.u.)
16,AGCAGCATCCCTGTCCTGCGTTCTTGTCATATCTGTTATTCGGAGTCACCTAGTGCAG,9790 fluorescence intensity (a.u.)
17,CATCCCAAAATATTTGACGTCGTTGACTTTTTTAAAAGTGCGGAGTCACCTAGTGCAG,18000 fluorescence intensity (a.u.)
18,GGGTTCTTGCTTATTTGGATCCGTTCTTCCGGGGAGCGAGCGGAGTCACCTAGTGCAG,8540 fluorescence intensity (a.u.)
19,GACAATGCAATCTTACTCCTACTTGCTGGTTATGAGACATCGGAGTCACCTAGTGCAG,8790 fluorescence intensity (a.u.)
20,CTTTTCTTTTCTCTTTGCTAATTTTGGATTTTATTTTTATCGGAGTCACCTAGTGCAG,9900 fluorescence intensity (a.u.)
21,AATTCCTGCGGGTCCCGATTCTTCCTATACAGGCCAAATCCGGAGTCACCTAGTGCAG,12700 fluorescence intensity (a.u.)

# An excerpt from further up, for reference:
row,Sequence,binding signal
13,ACGGTGTAAAAATTAGCAACCTTCATTACCTTGCTTTTGTCGGAGTCACCTAGTGCAG,10600 fluorescence intensity (a.u.)
14,AAACACATCACGTTGCTGCCCATACACAACACGTGCAAGACGGAGTCACCTAGTGCAG,8350 fluorescence intensity (a.u.)
15,TCTTTCTCTTTCCTCATTTATTCACTTGCCACATCATTTTCGGAGTCACCTAGTGCAG,8160 fluorescence intensity (a.u.)

# Reference: PMC7819943, “Rice protein-binding microarrays: a tool to detect cis-acting elements near promoter regions in rice”
